{"sequences": {"note": "The chains behind the UniProt entries cited, without tags or fusion partners. Where a name states a change or a piece, a line headed by the entry shows the natural chain unless it says otherwise.", "UniProt P18054": "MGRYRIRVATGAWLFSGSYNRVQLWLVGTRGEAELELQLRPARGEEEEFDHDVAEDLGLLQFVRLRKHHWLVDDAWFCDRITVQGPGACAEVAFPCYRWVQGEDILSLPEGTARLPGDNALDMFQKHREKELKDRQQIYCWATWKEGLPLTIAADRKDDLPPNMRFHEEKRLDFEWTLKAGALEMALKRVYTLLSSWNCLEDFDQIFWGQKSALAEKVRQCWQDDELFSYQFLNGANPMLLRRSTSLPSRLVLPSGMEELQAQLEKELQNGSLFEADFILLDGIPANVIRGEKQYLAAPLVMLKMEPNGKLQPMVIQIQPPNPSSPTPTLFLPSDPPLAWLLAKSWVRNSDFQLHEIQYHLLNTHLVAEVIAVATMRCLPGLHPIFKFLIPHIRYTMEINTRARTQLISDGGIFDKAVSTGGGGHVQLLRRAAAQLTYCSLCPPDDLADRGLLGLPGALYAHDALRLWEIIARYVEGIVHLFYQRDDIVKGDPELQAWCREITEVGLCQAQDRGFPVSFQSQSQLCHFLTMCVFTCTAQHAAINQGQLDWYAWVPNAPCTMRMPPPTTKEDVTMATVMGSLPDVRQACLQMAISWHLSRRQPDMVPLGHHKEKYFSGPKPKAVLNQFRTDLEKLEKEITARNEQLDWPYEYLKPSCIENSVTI"}, "source": "PubChem BioAssay AID1671190", "about": "(National Center for Advancing Translational Sciences (NCATS), 2021)", "note": "Among all 580,000 compounds or so, about 6,100 (1.1%) were called active. This list was built around the results that the source calls inconclusive (neither active nor inactive); the mix of calls is not that of the screen. Calls follow the shape of the dose curve; as a rule, active = well fitted inhibition curve with a large enough effect; inconclusive = small, poorly fitted or top-dose-only effect, or another doubt; inactive = no such curve, though single readings can be large or run the other way. Where the call is inconclusive, the potency comes from a doubtful curve fit."}
{"target": "Polyunsaturated fatty acid lipoxygenase ALOX12 (Homo sapiens) (UniProt P18054)", "assay": "Primary qHTS assay for inhibitors of human arachidonate 12S-lipoxygenase (ALOX12): Round 2; also: potency is read from the fitted curve at half-maximal effect; as to activity change, negative = inhibition: % is scaled to controls: 0 for no effect and ±100 for the full control effect", "details": "purified 12hLO, xylenol orange hydroperoxide absorbance; activity change, negative = inhibition: at 108 µM (top of the series) unless noted", "outline": "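Purified human 12hLO at 150 nM in 25 mM Hepes, 0.01% Triton X-100, pH 7.0, preincubated 15 min at room temperature with compound. Reaction started with 40 uM arachidonic acid, 30 min at room temperature. Hydroperoxide measured by Fe-xylenol orange, 573/405 nm absorbance ratio.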"}
{"molecule": "CCCCN(C(=O)c1ccc(S(=O)(=O)N2CCOCC2)cc1)C1CCS(=O)(=O)C1", "note": "(stereo not given)", "Potency": "inconclusive: 141 µM [inhibitor, single point]"}
{"molecule": "Cc1ccc(-c2ccccc2N)cc1", "Potency": "inconclusive: 28.2 µM [inhibitor, partial curve]"}
{"molecule": "CCc1nc2c(OCC3CCCCC3)cccn2c1N(C)C(=O)c1ccc(C)cc1", "Potency": "inconclusive: 63.1 µM [inhibitor, partial curve, poor fit]"}
{"molecule": "N#CC(c1ccc(Cl)cc1)c1ccc(Cl)nn1", "note": "(stereo not given)", "Potency": "inconclusive: 89.1 µM [inhibitor, single point]"}
{"molecule": "COCCn1nnnc1C1CC2(CCOCC2)C(=O)N1Cc1cccnc1", "note": "(stereo not given)", "Potency": "inconclusive: 17.8 µM [inhibitor, partial curve, poor fit]"}
{"molecule": "Cc1nn(C(C)C(=O)O)c(=O)c2ccccc12", "note": "(stereo not given)", "activity change, negative = inhibition": "inactive: -1.02%"}
{"molecule": "C/C(=N\\Nc1ccc(C(F)(F)F)cc1[N+](=O)[O-])C(C)C", "activity change, negative = inhibition": "inactive: 2.33%"}
{"molecule": "COc1ccc(C(=O)N2CCC3(CC2)NC(=O)N(Cc2ccccc2)C3=O)cc1", "activity change, negative = inhibition": "inactive: 16.6%"}
{"molecule": "CC(C)(C)C1CCc2c(sc(NC(=O)CCC(=O)O)c2C(=O)Nc2ccccc2C(F)(F)F)C1", "note": "(stereo not given)", "activity change, negative = inhibition": "inactive: -0.955%"}
{"molecule": "COC(=O)c1cccc(Nc2c3c(nc4ccccc24)CCC3)c1", "Potency": "inconclusive: 79.4 µM [inhibitor, partial curve, poor fit]"}
{"molecule": "COc1cccc(CNCCc2c[nH]c3ccccc23)c1OCc1ccccc1", "Potency": "inconclusive: 50.1 µM [inhibitor, partial curve, poor fit]"}
{"molecule": "Cc1ccc(-c2nnc(Sc3nc4ccccc4o3)c3ccccc23)cc1", "activity change, negative = inhibition": "inactive: 1.29%"}
{"molecule": "Cc1ccc(N=Cc2cc3c(cc2[N+](=O)[O-])OCO3)cc1[N+](=O)[O-]", "Potency": "inconclusive: 1 µM [inhibitor, full curve, poor fit]"}
{"molecule": "CC(=O)Nc1scc(-c2cc(C)ccc2C)c1C#N", "Potency": "inconclusive: 8.91 µM [inhibitor, full curve, poor fit]"}
{"molecule": "NC(=O)c1ccc(S(=O)(=O)N2CCN(C(=O)c3cc4c(s3)CCC4)CC2)cc1", "activity change, negative = inhibition": "inactive: -23.6%"}
{"molecule": "CC(=O)c1ccc(NC(=O)C2(c3ccc(Br)cc3)CCCC2)cc1", "Potency": "inconclusive: 63.1 µM [inhibitor, partial curve, poor fit]"}
{"molecule": "N#CC1CCNCC1", "Potency": "inconclusive: 31.6 µM [inhibitor, partial curve]"}
{"molecule": "Cc1ncc(-c2ccc(S(=O)(=O)Nc3ccc(C)c(Cl)c3)cc2)o1", "Potency": "inconclusive: 44.7 µM [inhibitor, partial curve, poor fit]"}
{"molecule": "COc1ccc(Cl)cc1NC(=O)Cn1c(SCc2cccc(C)c2)nc2ccncc21", "Potency": "inconclusive: 35.5 µM [inhibitor, partial curve, poor fit]"}
{"molecule": "CN(Cc1cn(Cc2ccc(F)cc2)nn1)C1CN(Cc2cn(Cc3ccc(F)cc3)nn2)S(=O)(=O)C1", "note": "(stereo not given)", "Potency": "inconclusive: 5.01 µM [inhibitor, full curve, poor fit]"}
{"molecule": "Cc1ccc(CNS(=O)(=O)c2ccc(C(F)(F)F)cc2)n1C", "Potency": "inconclusive: 31.6 µM [inhibitor, single point]"}
{"molecule": "COc1ccccc1OCCNC(=O)C(CCSC)NC(=O)c1ccccc1Cl", "note": "(stereo not given)", "Potency": "inconclusive: 50.1 µM [inhibitor, partial curve, poor fit]"}
{"molecule": "CCOc1ccc(CN(C)c2nc(-c3cccnc3)nc3ccccc23)cc1OC", "activity change, negative = inhibition": "inactive: 0.849%"}
{"molecule": "CCOCCCNC(=O)CN1C(=O)NC(Cc2c[nH]c3ccccc23)C1=O", "note": "(stereo not given)", "Potency": "inconclusive: 17.8 µM [inhibitor, partial curve, poor fit]"}
{"molecule": "O=C(O)c1ccc(Nc2nc3ccccc3nc2NS(=O)(=O)c2ccc(F)cc2)cc1", "Potency": "inconclusive: 50.1 µM [inhibitor, partial curve, poor fit]"}
{"molecule": "O=C(c1ccccc1)[C@@H]1[C@@H]2C(=O)N(c3ccc(F)cc3)C(=O)[C@@H]2C2CCCN21", "note": "(stereo not given in full)", "Potency": "inconclusive: 39.8 µM [inhibitor, partial curve, poor fit]"}
{"molecule": "CCOc1ccc(NC(=O)c2n[nH]c3ccccc23)cc1S(=O)(=O)N1CCCC1", "Potency": "inconclusive: 25.1 µM [inhibitor, partial curve, poor fit]"}
{"molecule": "Nc1ccc(-c2nc3ncccc3o2)c(O)c1", "Potency": "inconclusive: 0.631 µM [inhibitor, full curve, poor fit]"}
{"molecule": "C=CCCC(CN1CCCOCC1)Oc1ncc(C)c(N(C)C)n1", "note": "(stereo not given)", "Potency": "inconclusive: 35.5 µM [inhibitor, single point]"}
{"molecule": "O=C(NNC(=S)NC1CCCCC1)c1cccc(S(=O)(=O)Nc2ccccc2Cl)c1", "Potency": "inconclusive: 56.2 µM [inhibitor, partial curve, poor fit]"}
{"molecule": "COc1ccc(C(C)NC(=O)Cc2cccs2)cc1", "note": "(stereo not given)", "Potency": "inconclusive: 35.5 µM [inhibitor, single point]"}
{"molecule": "CCOc1ccccc1CN1CCC2(CC1)Cc1ccccc1CNC2=O", "activity change, negative = inhibition": "inactive: 6.73% [at 6.33 µM]"}
{"molecule": "Cn1c(=O)c(=O)n(C)c2cc(N3CCOCC3)c(NS(=O)(=O)c3ccc(F)c(Cl)c3)cc21", "Potency": "inconclusive: 44.7 µM [inhibitor, full curve, poor fit]"}
{"molecule": "CCN(CC)S(=O)(=O)c1ccc(C(C)NC(=O)Cc2c[nH]c3ccccc23)cc1", "note": "(stereo not given)", "Potency": "inconclusive: 100 µM [inhibitor, single point]"}
{"molecule": "CC1CCC(=NNC(=S)NCc2ccccc2)CC1", "note": "(stereo not given)", "Potency": "inconclusive: 39.8 µM [inhibitor, partial curve, poor fit]"}
{"molecule": "CCOC(=O)c1[nH]n(-c2ccc(Cl)cc2)c(=O)c1C", "Potency": "inconclusive: 50.1 µM [inhibitor, partial curve, poor fit]"}
{"molecule": "COc1ccc(NS(=O)(=O)c2ccc3oc(Nc4ccc5c(c4)OCCO5)nc3c2)cc1", "Potency": "inconclusive: 17.8 µM [inhibitor, partial curve, poor fit]"}
{"molecule": "O=C(Nc1cccc(F)c1)c1ccc(-c2ccccc2C(F)(F)F)o1", "Potency": "inconclusive: 89.1 µM [inhibitor, single point]"}
{"molecule": "Oc1c(Br)cc(Br)cc1C=Nc1ccc2[nH]ncc2c1", "Potency": "inconclusive: 50.1 µM [inhibitor, partial curve, poor fit]"}
{"molecule": "Cc1cc2c(cc1S(=O)(=O)N1CCC(C(=O)N3CCN(C)CC3)CC1)OC(C)C(=O)N2", "note": "(stereo not given)", "Potency": "inconclusive: 3.16 µM [inhibitor, full curve, poor fit]"}
